In the supplement of paper PMC10849652:
The other results are listed elsewhere or left out.

Chains of the proteins cited; added tags and fusions are not shown. Lines headed by an entry give the natural chain unless they say otherwise; changes in a name come on top.
UniProt P10909, whole entry, looked up: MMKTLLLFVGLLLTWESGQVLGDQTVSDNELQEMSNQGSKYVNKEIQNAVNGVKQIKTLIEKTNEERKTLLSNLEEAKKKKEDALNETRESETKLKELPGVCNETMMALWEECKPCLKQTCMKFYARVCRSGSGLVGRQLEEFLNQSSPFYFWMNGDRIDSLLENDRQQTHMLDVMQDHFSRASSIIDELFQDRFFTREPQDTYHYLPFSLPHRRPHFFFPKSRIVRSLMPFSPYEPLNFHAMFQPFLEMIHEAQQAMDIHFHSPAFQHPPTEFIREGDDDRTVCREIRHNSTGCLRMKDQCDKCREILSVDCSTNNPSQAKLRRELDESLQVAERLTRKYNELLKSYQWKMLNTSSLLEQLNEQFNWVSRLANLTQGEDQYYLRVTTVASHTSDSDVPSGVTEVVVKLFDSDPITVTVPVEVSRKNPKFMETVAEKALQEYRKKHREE
UniProt Q8WVB6, whole entry, looked up: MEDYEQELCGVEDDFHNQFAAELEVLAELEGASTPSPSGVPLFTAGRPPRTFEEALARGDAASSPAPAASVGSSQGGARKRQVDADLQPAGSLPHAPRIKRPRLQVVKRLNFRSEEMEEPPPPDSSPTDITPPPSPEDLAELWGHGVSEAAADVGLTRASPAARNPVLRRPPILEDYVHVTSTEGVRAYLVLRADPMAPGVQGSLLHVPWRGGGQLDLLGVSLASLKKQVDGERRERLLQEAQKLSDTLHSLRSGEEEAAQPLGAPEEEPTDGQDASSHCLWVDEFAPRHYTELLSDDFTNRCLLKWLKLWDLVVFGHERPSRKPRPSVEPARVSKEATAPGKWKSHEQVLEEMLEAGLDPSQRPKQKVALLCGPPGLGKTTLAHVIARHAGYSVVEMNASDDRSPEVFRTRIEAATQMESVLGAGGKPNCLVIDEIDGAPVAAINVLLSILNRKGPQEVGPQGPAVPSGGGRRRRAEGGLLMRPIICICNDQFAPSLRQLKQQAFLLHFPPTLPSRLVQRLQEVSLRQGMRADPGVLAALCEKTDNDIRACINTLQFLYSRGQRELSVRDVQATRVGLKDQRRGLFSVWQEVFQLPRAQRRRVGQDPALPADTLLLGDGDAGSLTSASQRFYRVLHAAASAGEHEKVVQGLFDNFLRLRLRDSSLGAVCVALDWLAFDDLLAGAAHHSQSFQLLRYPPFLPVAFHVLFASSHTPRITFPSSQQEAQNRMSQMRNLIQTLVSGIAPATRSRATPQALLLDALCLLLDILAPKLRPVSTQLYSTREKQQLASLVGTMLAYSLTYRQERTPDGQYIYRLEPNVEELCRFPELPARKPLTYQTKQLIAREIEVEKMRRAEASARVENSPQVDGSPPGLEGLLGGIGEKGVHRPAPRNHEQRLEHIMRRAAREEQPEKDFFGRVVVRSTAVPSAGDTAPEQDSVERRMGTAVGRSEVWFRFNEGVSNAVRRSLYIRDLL
UniProt P49759: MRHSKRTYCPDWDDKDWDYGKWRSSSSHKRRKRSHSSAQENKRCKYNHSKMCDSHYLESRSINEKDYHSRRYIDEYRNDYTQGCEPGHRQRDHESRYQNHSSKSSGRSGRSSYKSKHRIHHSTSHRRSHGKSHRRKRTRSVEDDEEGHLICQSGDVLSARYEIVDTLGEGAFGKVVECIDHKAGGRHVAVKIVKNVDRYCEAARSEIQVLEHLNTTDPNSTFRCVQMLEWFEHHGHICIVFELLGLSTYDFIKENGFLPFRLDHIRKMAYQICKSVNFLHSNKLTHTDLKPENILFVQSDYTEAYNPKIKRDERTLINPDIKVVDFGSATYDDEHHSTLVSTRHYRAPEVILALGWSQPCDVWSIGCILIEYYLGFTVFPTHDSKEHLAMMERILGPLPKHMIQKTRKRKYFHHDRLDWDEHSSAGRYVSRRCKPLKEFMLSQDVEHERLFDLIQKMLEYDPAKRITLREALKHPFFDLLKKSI
UniProt P33552, whole entry, looked up: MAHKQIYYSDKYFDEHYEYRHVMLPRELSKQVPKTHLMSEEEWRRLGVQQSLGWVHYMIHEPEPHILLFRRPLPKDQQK
UniProt Q9NSE2: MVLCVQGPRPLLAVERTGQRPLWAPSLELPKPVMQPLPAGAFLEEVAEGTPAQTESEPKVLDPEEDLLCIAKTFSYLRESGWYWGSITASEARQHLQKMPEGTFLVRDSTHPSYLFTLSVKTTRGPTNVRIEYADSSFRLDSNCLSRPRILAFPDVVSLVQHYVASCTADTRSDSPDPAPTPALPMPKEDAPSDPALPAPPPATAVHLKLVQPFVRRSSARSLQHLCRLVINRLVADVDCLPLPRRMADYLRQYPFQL
UniProt Q7Z460: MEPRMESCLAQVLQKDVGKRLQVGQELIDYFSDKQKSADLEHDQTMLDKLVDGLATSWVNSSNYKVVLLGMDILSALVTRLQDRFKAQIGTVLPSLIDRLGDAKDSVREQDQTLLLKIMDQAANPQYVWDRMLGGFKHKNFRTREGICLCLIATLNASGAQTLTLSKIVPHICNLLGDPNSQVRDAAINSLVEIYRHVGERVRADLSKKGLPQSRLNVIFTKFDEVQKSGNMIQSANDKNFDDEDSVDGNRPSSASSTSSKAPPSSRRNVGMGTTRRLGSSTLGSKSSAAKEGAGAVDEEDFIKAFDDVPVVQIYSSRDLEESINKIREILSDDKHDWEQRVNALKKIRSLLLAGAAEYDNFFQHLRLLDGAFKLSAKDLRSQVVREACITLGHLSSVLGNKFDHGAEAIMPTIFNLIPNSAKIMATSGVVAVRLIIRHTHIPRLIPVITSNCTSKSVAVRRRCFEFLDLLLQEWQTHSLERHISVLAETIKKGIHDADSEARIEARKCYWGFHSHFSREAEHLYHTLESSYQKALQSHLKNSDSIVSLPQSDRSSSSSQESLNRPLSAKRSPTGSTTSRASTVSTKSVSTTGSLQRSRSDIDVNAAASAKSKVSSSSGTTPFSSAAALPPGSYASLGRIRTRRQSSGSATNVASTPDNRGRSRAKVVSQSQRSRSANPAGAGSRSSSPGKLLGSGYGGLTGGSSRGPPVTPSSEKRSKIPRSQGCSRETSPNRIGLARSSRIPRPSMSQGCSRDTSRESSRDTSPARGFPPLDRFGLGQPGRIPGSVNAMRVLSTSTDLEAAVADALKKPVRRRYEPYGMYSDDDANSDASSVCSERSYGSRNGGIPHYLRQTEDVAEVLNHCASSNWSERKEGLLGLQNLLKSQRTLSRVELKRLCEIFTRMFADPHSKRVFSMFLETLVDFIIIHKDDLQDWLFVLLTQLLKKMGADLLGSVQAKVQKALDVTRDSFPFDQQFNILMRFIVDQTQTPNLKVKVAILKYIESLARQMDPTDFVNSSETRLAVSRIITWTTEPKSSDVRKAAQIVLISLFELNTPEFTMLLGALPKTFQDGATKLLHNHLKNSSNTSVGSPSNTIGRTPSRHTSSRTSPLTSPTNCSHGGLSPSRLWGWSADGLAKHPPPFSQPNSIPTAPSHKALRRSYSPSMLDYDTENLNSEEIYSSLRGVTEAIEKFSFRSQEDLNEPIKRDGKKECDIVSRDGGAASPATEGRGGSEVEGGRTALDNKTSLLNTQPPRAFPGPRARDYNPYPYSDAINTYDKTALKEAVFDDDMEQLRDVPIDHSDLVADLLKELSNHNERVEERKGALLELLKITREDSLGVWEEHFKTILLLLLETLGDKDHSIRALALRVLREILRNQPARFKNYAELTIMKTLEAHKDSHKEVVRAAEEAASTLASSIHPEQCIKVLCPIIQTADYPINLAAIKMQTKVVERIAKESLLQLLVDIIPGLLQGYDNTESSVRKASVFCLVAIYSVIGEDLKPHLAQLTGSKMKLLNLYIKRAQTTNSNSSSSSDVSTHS
UniProt Q86X95: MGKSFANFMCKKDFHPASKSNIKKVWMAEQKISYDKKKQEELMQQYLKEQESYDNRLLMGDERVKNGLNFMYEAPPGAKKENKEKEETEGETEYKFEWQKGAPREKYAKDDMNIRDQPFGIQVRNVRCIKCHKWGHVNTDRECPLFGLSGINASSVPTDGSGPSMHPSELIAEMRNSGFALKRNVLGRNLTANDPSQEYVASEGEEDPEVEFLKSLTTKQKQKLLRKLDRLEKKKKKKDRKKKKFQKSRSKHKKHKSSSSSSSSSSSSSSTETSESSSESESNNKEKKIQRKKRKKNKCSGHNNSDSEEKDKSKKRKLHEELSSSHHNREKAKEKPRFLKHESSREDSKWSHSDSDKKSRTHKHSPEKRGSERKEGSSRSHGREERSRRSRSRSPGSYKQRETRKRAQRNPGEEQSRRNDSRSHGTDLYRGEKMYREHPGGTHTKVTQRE

What was measured:
Assay in all cases: log2 fold change, soluble protein after heating vs DMSO (PISA); higher = thermal stabilisation; K562 lysate, 10 uM; active = over 0.2 and 3.5 SD of the protein, either way, in both replicates (recomputed)
[1] = compound: c1ccc([C@@H]2C[C@H]2NC2CCNCC2)cc1
Procedure, shortened: (§1)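 A 30 min treatment with 10 μM compound was applied to crude K562 extract at 1 mg/mL protein in PBS pH 7.4 with 1 mM MgCl2. Heating for 3 min spanned 48°C-58°C, after which aliquots were pooled, adjusted to 0.5% NP-40 at 4°C and spun at 21,000xg for 90 min. TMTpro 16plex LC-MS/MS of the supernatant, with channel sums equalised, gave values recorded as log-two fold change in thermal stability against solvent controls, from duplicates.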

[2] = compound: Cc1sc2c(c1C)C(c1ccc(Cl)cc1)=N[C@@H](CC(=O)OC(C)(C)C)c1nnc(C)n1-2
Procedure, shortened: as §1

[3] = compound: C1=CC=C(C=C1)[C@H](COC2=CC3=C(C=C2)NC(=O)N3)NC(=O)C4=CC=CN(C4=O)CC5=CC(=C(C=C5)F)F
Procedure, shortened: as §1

[4] = compound: CC1=C(SC2=C1C(=N[C@H](C3=NN=C(N32)C)CC(=O)N)C4=CC=C(C=C4)Cl)C
Procedure, shortened: as §1

[5] = compound: CC1=C2C(=CC=C1)N=C(N(C2=O)C3=CC=CC=C3C)CN4C=NC5=C(N=CN=C54)N
Procedure, shortened: as §1

For CLU isoform 2 (UniProt P10909), which log2 fold change [1] is on record?
Its log2 fold change is inactive: -0.086.

For CHD4, A0A2R8Y521, which log2 fold change [2] is on record?
Its log2 fold change is inactive: -0.136.

Which log2 fold change [2] does the source give for CHTF18 (UniProt Q8WVB6) here?
Its log2 fold change is inactive: 0.02.

For CLK1 isoform 3 (UniProt P49759), which log2 fold change [3] is on record?
The log2 fold change was inactive: 0.04.

What about the log2 fold change [4] of the same target?
Its log2 fold change is inactive: 0.035.

What about the log2 fold change [1] of the same target?
The log2 fold change was inactive: -0.257.

What does the source list for CKS2 (UniProt P33552)?
log2 fold change [5]: inactive: -0.135; log2 fold change [1]: inactive: 0.065

With CHMP2A (UniProt M0R1T5) as the target, how does the log2 fold change [1] read?
The log2 fold change was inactive: 0.069.

How did the log2 fold change [5] turn out when CISH isoform 3 (UniProt Q9NSE2) was run?
Its log2 fold change is inactive: 0.091.

With CLASP1 isoform 4 (UniProt Q7Z460) as the target, how does the log2 fold change [5] read?
Its log2 fold change is inactive: 0.056.

CIR1 (UniProt Q86X95) was tested. Which log2 fold change [2] did it give?
Its log2 fold change is inactive: -0.107.
